This is one part of the list. These are raw signals, not scaled to a control.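 First-pass screen: polymyxin B was added at a level that permeabilizes the Salmonella outer membrane while sparing the inner membrane. DMSO wells, with and without polymyxin B, defined maximum growth. Because plates differed from one another, each plate's data were ranked separately and the compounds with the lowest OD600 were carried forward as hits.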

The assay has as its system Salmonella enterica serovar Typhimurium SL1344. The assay can be described thus: bacterial growth OD600 after 18 h with compound and polymyxin B; higher = more bacterial growth (less inhibition). The conditions noted are these: 50 µM, Mueller-Hinton broth.

Regarding `Oc1ccc(CN2CCC3(CCCN(Cc4ccc(F)cc4)C3)C2)cc1` (stereo not given), the “bacterial growth OD600” value (polymyxin B 1 µg/mL) turned out to be 0.948.

For the molecule `COc1cccc(CN2C[C@@H]3C[C@@H](c4ccc(C)s4)N4CCC[C@@]34C2=O)c1`, for the setting “polymyxin B 0.75 µg/mL”, the “bacterial growth OD600” value turned out to be 0.777.

Consider `CCN1CCN(C(=O)c2cc(COc3ccc4c(c3)CCCC4)on2)[C@@H](C)C1=O`, for which the “bacterial growth OD600” value (polymyxin B 1 µg/mL) was determined as 0.667.

On to `CCCCN(C)Cc1cnc(S(=O)(=O)Cc2ccccc2)n1CC(C)C`, for which the “bacterial growth OD600” value (polymyxin B 1 µg/mL) was 0.615.

`COc1ccc(-n2cc(CNC3CCN(C)CC3)c(-c3cccc(F)c3)n2)cc1`: the “bacterial growth OD600” value (polymyxin B 1 µg/mL) worked out at 0.808.

On to `Cc1nc(N2CCC(C(=O)NCC(C)(C)N3CCOCC3)CC2)nc2ccc(C(C)C)cc12`, for which the “bacterial growth OD600” value (polymyxin B 0.75 µg/mL) was 0.947.

On to `O=C1CCCN1CC(=O)N1CCc2[nH]nc(-c3ccc(C(F)(F)F)cc3)c2C1`, for which the “bacterial growth OD600” value (polymyxin B 0.75 µg/mL) amounted to 0.599.

For `Fc1ccc(Oc2ncccc2CNc2ncccn2)c(F)c1`, for the setting “polymyxin B 0.75 µg/mL”, the “bacterial growth OD600” value came to 0.879.

With `CC(C)CC(=O)NC1CC(C)(C)Cc2nc(N3CCOCC3)ncc21` (stereo not given), the “bacterial growth OD600” value (polymyxin B 0.75 µg/mL) is 0.884.

On to `C=C(C)CN(CC)C(=O)c1ccc(OC2CCN(C(=O)CCOC)CC2)cc1`, for which, where the note is “polymyxin B 1 µg/mL”, the “bacterial growth OD600” value was found to be 0.858.

Take `COC(=O)C1CCCCN1C(=O)CCc1nnc(CCc2ccccc2OC)o1` (stereo not given): for the setting “polymyxin B 1 µg/mL”, the “bacterial growth OD600” value turned out to be 1.15.

Turning to `O=C(c1sccc1Cl)N1CCOc2ccc(CN3CCN(c4ncccn4)CC3)cc2C1`, the “bacterial growth OD600” value (polymyxin B 0.75 µg/mL) stood at 0.766.

In the case of `O=C1CC(NC2CCSCC2)CN1CCc1ccccc1` (stereo not given), the “bacterial growth OD600” value (polymyxin B 1 µg/mL) came to 0.963.

Consider `Cc1ccccc1-c1cccc(CN2CCCC(CCC(=O)N3CCOCC3)C2)c1` (stereo not given), for which the “bacterial growth OD600” value (polymyxin B 1 µg/mL) came out at 0.874.

Regarding `O=C(c1ccc(-c2ccco2)cc1)N1CCC2(CC1)CC2C(=O)N1CCN(c2ccccn2)CC1` (stereo not given), under “polymyxin B 0.75 µg/mL”, the “bacterial growth OD600” value stood at 0.843.

With `COCCN1C(=O)CC(CC(=O)N(C)CC23CC4CC(CC(C4)C2)C3)(c2ccccc2Cl)C1=O` (stereo not given), under “polymyxin B 0.75 µg/mL”, the “bacterial growth OD600” value was determined as 0.505.

Turning to `COC(=O)CNC1CCN(c2ccc(C(=O)NCCN3CCOCC3)cc2)CC1`, the “bacterial growth OD600” value (polymyxin B 0.75 µg/mL) came out at 1.01.

As for `CC#CCN1C(=O)NC(CCc2ccccc2)(C2CCN(C(=O)C3CCCCC3)CC2)C1=O` (stereo not given), the “bacterial growth OD600” value (polymyxin B 0.75 µg/mL) was determined as 0.893.

For `COCC1CCCN(C(=O)c2cc(COc3cccc(C(F)(F)F)c3)on2)C1` (stereo not given), where the note is “polymyxin B 1 µg/mL”, the “bacterial growth OD600” value is 0.016.

With `COCC1CCN(CC2(O)CCCN(Cc3cccc(F)c3F)C2=O)CC1` (stereo not given), the “bacterial growth OD600” value (polymyxin B 1 µg/mL) was determined as 0.915.

Take `CCOC(=O)C1(Cc2ccccc2C(F)(F)F)CCN(Cc2cn(C)nc2C)CC1`: the “bacterial growth OD600” value (polymyxin B 1 µg/mL) came out at 0.892.

Take `COc1cccc(CC2(CCC(=O)N3CCC(c4nc5ccccc5o4)CC3)CCC(=O)N2)c1` (stereo not given): the “bacterial growth OD600” value (polymyxin B 0.75 µg/mL) came to 0.826.

As for `CCN(CC)c1ccc(C(=O)NCCC2CCCCN2C)cn1` (stereo not given), the “bacterial growth OD600” value (polymyxin B 1 µg/mL) came out at 0.956.

For `CC1(C)Cc2nc(N3CCOCC3)ncc2C(NC(=O)C2CCC2)C1` (stereo not given), for the setting “polymyxin B 0.75 µg/mL”, the “bacterial growth OD600” value was 0.829.

Consider `COCCN1C(=O)CC(CC(=O)N2CCCC(OCc3ccccc3)C2)(c2ccccc2F)C1=O` (stereo not given), for which, under “polymyxin B 0.75 µg/mL”, the “bacterial growth OD600” value is 0.794.

Regarding `CCC1CN(CCNC(=O)c2ccc(C(C)=O)s2)Cc2cc(OC)ccc2O1` (stereo not given), the “bacterial growth OD600” value (polymyxin B 0.75 µg/mL) was 0.95.

In the case of `CN(C)CCN(CC1CCCN(Cc2ccccc2F)C1)C(=O)c1ccsc1` (stereo not given), the “bacterial growth OD600” value (polymyxin B 0.75 µg/mL) is 0.824.

As for `CC(=O)N1CCC(Oc2ccc(Cl)cc2C(=O)N2CCN(CC3CC3)CC2)CC1`, the “bacterial growth OD600” value (polymyxin B 1 µg/mL) came out at 0.914.

Turning to `CCOC(=O)N1CCC(N2CCCC(Nc3ccccc3)C2)CC1` (stereo not given), the “bacterial growth OD600” value (polymyxin B 1 µg/mL) was determined as 0.895.

Turning to `CC(C)c1ccc(CN2CCCC3(CCN(S(=O)(=O)C(C)C)C3)C2=O)cc1` (stereo not given), the “bacterial growth OD600” value (polymyxin B 1 µg/mL) was found to be 0.824.

The values above are taken from the supplement of paper PMC12889115.
